Results deposited as PubChem BioAssay AID1508597 (Cure First, 2020).
Aim: 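Knock-downs altering ovarian cancer cell survival with or without PARP inhibitor rucaparib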 (primary screen). Cells: human ovarian carcinoma lines grown from tumours: OCI-P5x (papillary serous) and OCI-C5x (clear cell). Reagent: siRNA pool against human genes, 1.25 pmol siRNA per well. Time to read-out: 72 h or 96 h, depending on the cell culture. Conditions: rucaparib 20 µM (about IC30) or vehicle, present until read-out. Detection: 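Luminescent ATP-based viability assay read 72 or 96 h after transfection, depending on culture, given as normalised percent viability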. Scale: viability, normalised: higher = more viable cells remaining. Active means: 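Active when normalised viability falls below 80 percent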. Meaning of the calls: active = viability under 80%; inactive = viability 80% or more.
In all, the deposit lists about 2,100 reagents; shown is a random part of them. 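Calls flag viability under 80% in either arm, not effects specific to rucaparib; the reference for percent is not stated.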 Some reagents were tested in more than one well and are listed for each. Reagent sequences are not shown. The record does not give: the 100% reference.

JAK1, rucaparib or vehicle Rucaparib, cell line OCI-C5x (clear cell), technical replicate 1
- viability, normalised (%): 38.6
- Outcome: active

JAK1, rucaparib or vehicle Rucaparib, cell line OCI-C5x (clear cell), technical replicate 2
- viability, normalised (%): 49.7
- Outcome: active

JAK1, rucaparib or vehicle Rucaparib, cell line OCI-C5x (clear cell), technical replicate 3
- viability, normalised (%): 38.9
- Outcome: active

JAK1, rucaparib or vehicle Rucaparib, cell line OCI-P5x (serous), technical replicate 1
- viability, normalised (%): 39.7
- Outcome: active

JAK1, rucaparib or vehicle Rucaparib, cell line OCI-P5x (serous), technical replicate 2
- viability, normalised (%): 70.7
- Outcome: active

JAK1, rucaparib or vehicle Rucaparib, cell line OCI-P5x (serous), technical replicate 3
- viability, normalised (%): 62.3
- Outcome: active

JAK1, rucaparib or vehicle Vehicle, cell line OCI-C5x (clear cell), technical replicate 1
- viability, normalised (%): 59.6
- Outcome: active

JAK1, rucaparib or vehicle Vehicle, cell line OCI-C5x (clear cell), technical replicate 2
- viability, normalised (%): 53.6
- Outcome: active

JAK1, rucaparib or vehicle Vehicle, cell line OCI-C5x (clear cell), technical replicate 3
- viability, normalised (%): 49.8
- Outcome: active

JAK1, rucaparib or vehicle Vehicle, cell line OCI-P5x (serous), technical replicate 1
- viability, normalised (%): 52.1
- Outcome: active

JAK1, rucaparib or vehicle Vehicle, cell line OCI-P5x (serous), technical replicate 2
- viability, normalised (%): 58.2
- Outcome: active

JAK1, rucaparib or vehicle Vehicle, cell line OCI-P5x (serous), technical replicate 3
- viability, normalised (%): 61.4
- Outcome: active

LIG4, rucaparib or vehicle Rucaparib, cell line OCI-C5x (clear cell), technical replicate 1
- viability, normalised (%): 50.6
- Outcome: active

LIG4, rucaparib or vehicle Rucaparib, cell line OCI-C5x (clear cell), technical replicate 1
- viability, normalised (%): 53.3
- Outcome: active

LIG4, rucaparib or vehicle Rucaparib, cell line OCI-C5x (clear cell), technical replicate 2
- viability, normalised (%): 37.6
- Outcome: active

LIG4, rucaparib or vehicle Rucaparib, cell line OCI-C5x (clear cell), technical replicate 2
- viability, normalised (%): 60.3
- Outcome: active

LIG4, rucaparib or vehicle Rucaparib, cell line OCI-C5x (clear cell), technical replicate 3
- viability, normalised (%): 50.4
- Outcome: active

LIG4, rucaparib or vehicle Rucaparib, cell line OCI-C5x (clear cell), technical replicate 3
- viability, normalised (%): 49.3
- Outcome: active

LIG4, rucaparib or vehicle Rucaparib, cell line OCI-P5x (serous), technical replicate 1
- viability, normalised (%): 62.5
- Outcome: active

LIG4, rucaparib or vehicle Rucaparib, cell line OCI-P5x (serous), technical replicate 1
- viability, normalised (%): 60.2
- Outcome: active

LIG4, rucaparib or vehicle Rucaparib, cell line OCI-P5x (serous), technical replicate 2
- viability, normalised (%): 60.6
- Outcome: active

LIG4, rucaparib or vehicle Rucaparib, cell line OCI-P5x (serous), technical replicate 2
- viability, normalised (%): 62.6
- Outcome: active

LIG4, rucaparib or vehicle Rucaparib, cell line OCI-P5x (serous), technical replicate 3
- viability, normalised (%): 59.6
- Outcome: active

LIG4, rucaparib or vehicle Rucaparib, cell line OCI-P5x (serous), technical replicate 3
- viability, normalised (%): 76.4
- Outcome: active

LIG4, rucaparib or vehicle Vehicle, cell line OCI-C5x (clear cell), technical replicate 1
- viability, normalised (%): 42.3
- Outcome: active

LIG4, rucaparib or vehicle Vehicle, cell line OCI-C5x (clear cell), technical replicate 1
- viability, normalised (%): 54.2
- Outcome: active

LIG4, rucaparib or vehicle Vehicle, cell line OCI-C5x (clear cell), technical replicate 2
- viability, normalised (%): 46.8
- Outcome: active

LIG4, rucaparib or vehicle Vehicle, cell line OCI-C5x (clear cell), technical replicate 2
- viability, normalised (%): 44.9
- Outcome: active

LIG4, rucaparib or vehicle Vehicle, cell line OCI-C5x (clear cell), technical replicate 3
- viability, normalised (%): 59.1
- Outcome: active

LIG4, rucaparib or vehicle Vehicle, cell line OCI-C5x (clear cell), technical replicate 3
- viability, normalised (%): 63.2
- Outcome: active

LIG4, rucaparib or vehicle Vehicle, cell line OCI-P5x (serous), technical replicate 1
- viability, normalised (%): 82.9
- Outcome: inactive

LIG4, rucaparib or vehicle Vehicle, cell line OCI-P5x (serous), technical replicate 1
- viability, normalised (%): 65.1
- Outcome: active

LIG4, rucaparib or vehicle Vehicle, cell line OCI-P5x (serous), technical replicate 2
- viability, normalised (%): 58.2
- Outcome: active

LIG4, rucaparib or vehicle Vehicle, cell line OCI-P5x (serous), technical replicate 2
- viability, normalised (%): 88.2
- Outcome: inactive

LIG4, rucaparib or vehicle Vehicle, cell line OCI-P5x (serous), technical replicate 3
- viability, normalised (%): 90.5
- Outcome: inactive

LIG4, rucaparib or vehicle Vehicle, cell line OCI-P5x (serous), technical replicate 3
- viability, normalised (%): 68
- Outcome: active

Laid out differently: results already given.
{"Target gene":"LIG4","rucaparib or vehicle":"Vehicle","cell line":"OCI-C5x (clear cell)","technical replicate":"3","viability, normalised (%)":63.2,"Outcome":"active"}
{"Target gene":"LIG4","rucaparib or vehicle":"Vehicle","cell line":"OCI-P5x (serous)","technical replicate":"1","viability, normalised (%)":82.9,"Outcome":"inactive"}
{"Target gene":"LIG4","rucaparib or vehicle":"Vehicle","cell line":"OCI-P5x (serous)","technical replicate":"1","viability, normalised (%)":65.1,"Outcome":"active"}
{"Target gene":"LIG4","rucaparib or vehicle":"Vehicle","cell line":"OCI-P5x (serous)","technical replicate":"2","viability, normalised (%)":58.2,"Outcome":"active"}
